Test results published in PubChem BioAssay AID1347075 (National Center for Advancing Translational Sciences (NCATS), 2019).
Screen size: about 400,000 compounds; about 5,500 (1.4%) were called active. The shares of active, inactive and inconclusive entries below differ from those in the screen. The call rests on the fitted dose curve; in most records, active means well fitted cell-killing curve with a large enough effect; inconclusive means small, poorly fitted or top-dose-only effect, or effect the other way; inactive means flat fitted curve, though single readings scatter. Potencies of inconclusive entries are doubtful fits and often do not repeat.

Assay: qHTS assay for MDR1-selective chemotherapeutics: Primary screen using the parental adenocarcinoma cell KB-3-1; further: nearly all actives have a fitted effect of over 60% in size
Settings: KB-3-1 viability, CellTiter-Glo ATP luminescence, 72 h; activity change, negative = cytotoxic: at 46.1 µM (top of the series)
Procedure, shortened: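 Using CellTiter-Glo luminescence, growth of non-resistant KB-3-1 adenocarcinoma cells is assessed 72 h after pin-tool compound addition at 37 °C. Normalized responses across the concentration series yield fitted curves.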
On the % scale 0 is the no-effect control and ±100 the full control effect; potency means the concentration at half of the fitted maximal effect.

Row | SMILES | activity change, negative = cytotoxic | Potency
1 | O=C(NCc1ccco1)C(c1ccncc1)N(C(=O)Cn1nnc2ccccc21)c1ccccc1F (stereo unspecified) | inactive: 15.5% | –
2 | O=C(Nc1ccc(-c2cscn2)cc1)C1CCCN(Cc2ccccc2)C1 (stereo unspecified) | – | inconclusive: 20.6 µM [cytotoxic, single point]
3 | CCC(=O)N1CCc2cc(Br)cc(S(=O)(=O)N3CCCC(C(=O)N(C)c4ccc(Br)cc4)C3)c21 (stereo unspecified) | – | inconclusive: 29.1 µM [cytotoxic, single point]
4 | CCN1CCN(c2ccc(Cl)cc2NC(=O)c2ccc(-n3nc(C)cc3C)cc2)CC1 | inconclusive: 0% | –
5 | CCSC1=C(C#N)C(c2ccccc2Cl)C(C(=O)c2cccs2)C(O)(C(F)(F)F)N1 (stereo unspecified) | – | inconclusive: 25.9 µM [cytotoxic, partial curve]
6 | Cc1ccc2nc3c(cc(C(=O)NC4CCCC4)c(=N)n3C3CCCCC3)c(=O)n2c1 | – | inconclusive: 29.1 µM [cytotoxic, single point]
7 | O=C(Nc1ccc(NS(=O)(=O)c2ccccc2)cc1)c1ccc(Cl)cc1 | – | inconclusive: 0.0731 µM [rising, full curve, poor fit]
8 | COc1ccc(C(CCNC(C)c2ccccc2)c2ccc(F)cc2)cc1 (stereo unspecified) | – | inconclusive: 29.1 µM [cytotoxic, single point]
9 | O=C(Cn1c(=O)oc2cc(S(=O)(=O)N3CCCC3)ccc21)N1CCN(C2CCCCC2)CC1 | – | inconclusive: 23.1 µM [cytotoxic, single point]
10 | COc1ccccc1CNC(=O)c1ccc(-c2nc(CN3CCc4ccccc43)c(C)o2)cc1 | – | inconclusive: 20.6 µM [cytotoxic, single point]
11 | COc1ccc(C(=O)NCCn2cc(SCC(=O)Nc3cc(C)on3)c3ccccc32)cc1OC | inactive: 2.85% | –
12 | CC(C)(C)NC(=O)NC(=O)CN1CCN(S(=O)(=O)c2ccc3c(c2)OCCO3)CC1 | inactive: 10.5% | –
13 | O=C(Cc1ccc(F)cc1)NCCS(=O)(=O)N1CCN(c2cccc(Cl)c2)CC1 | – | inconclusive: 29.1 µM [cytotoxic, single point]
14 | O=c1c2ccccc2c(-c2cccc(C(F)(F)F)c2)nn1-c1ccccc1 | – | inconclusive: 29.1 µM [cytotoxic, single point]
15 | Cc1ccc(-c2noc(CN(C(=O)C(c3ccccc3)c3ccccc3)C(C)C)n2)cc1 | – | inconclusive: 29.1 µM [cytotoxic, single point]
16 | CCOc1ccc(-c2nnc(SCc3nnc(-c4ccccc4)o3)n2-c2ccccc2F)cc1 | – | inconclusive: 16.4 µM [cytotoxic, single point]
17 | CCOC(=O)C1CCCN(c2nc3c(S(=O)(=O)c4ccc(C)c(C)c4)nnn3c3ccc(Cl)cc23)C1 (stereo unspecified) | inactive: 7.51% | –
18 | CCOC(=O)c1c(C)nc2sc(C(=O)Nc3ccc(OC)cc3)c(N)c2c1-c1ccc(OC)cc1 | – | active: 5.8 µM
19 | COc1ccc(/C=N/NC(=O)CNC(=O)c2ccc3c(c2)OCCO3)cc1OC | inactive: 15.9% | –
20 | O=C(CN1CCN(C(=O)CNC(=O)c2ccc(-c3ccccc3)cc2)CC1)Nc1ccccc1Cl | – | inconclusive: 25.9 µM [cytotoxic, partial curve, poor fit]
21 | Cc1ccc(Cl)cc1N1CCN(c2ncnc3onc(C)c23)CC1 | – | inconclusive: 29.1 µM [cytotoxic, single point]
22 | CNC(=O)c1nc(C)c(C2(C)CC(c3ccccc3)=NO2)s1 (stereo unspecified) | inactive: 0% | –
23 | CC(C)(C)N=C1NN=C(c2ccc(S(=O)(=O)N3CCCCC3)cc2)CS1 | – | inconclusive: 29.1 µM [cytotoxic, single point]
24 | CCCC(=O)Nc1nc2ccc(NC(=O)c3ccccc3F)cc2s1 | – | active: 2.06 µM

Entries above that have an aryl thioether with sulfur outside any ring (2):
Row | SMILES | activity change, negative = cytotoxic | Potency
11 | COc1ccc(C(=O)NCCn2cc(SCC(=O)Nc3cc(C)on3)c3ccccc32)cc1OC | inactive: 2.85% | –
16 | CCOc1ccc(-c2nnc(SCc3nnc(-c4ccccc4)o3)n2-c2ccccc2F)cc1 | – | inconclusive: 16.4 µM [cytotoxic, single point]

Additional compounds:

Row | SMILES | activity change, negative = cytotoxic | Potency
25 | C[C@H]1C=CC(=O)O[C@H]1c1ccccc1 | – | active: 20.6 µM
26 | CSCCC(NC(=O)COc1ccccc1)C(=O)NCC1COc2ccccc2O1 (stereo unspecified) | – | inconclusive: 5.8 µM [rising, full curve]
27 | Cc1cc(C)n2nc(C)c(-c3ccc(Cl)cc3)c2n1 | – | inconclusive: 18.4 µM [cytotoxic, single point]
28 | COc1cccc(C(=O)Nc2cc3c(cc2C(=O)c2ccc(C)cc2)OCCO3)c1 | – | inconclusive: 29.1 µM [cytotoxic, single point]
29 | Cc1ccc2c(c1)c1ccc3c(c1n2C)C(=O)C=CC3=O | – | active: 16.4 µM
30 | CC[C@@H]1C/C=C\Cc2ccccc2[C@H](C(=O)C[C@H](O)CC(C)=O)OC1=O | – | inconclusive: 0.13 µM [rising, full curve]
31 | Cn1c(CCN2CCOCC2)nc2cc(NS(=O)(=O)c3ccccc3)ccc21 | – | inconclusive: 16.4 µM [cytotoxic, partial curve, poor fit]
32 | Cc1[nH]c(=O)c(C#N)cc1-c1csc(-c2ccccc2)n1 | – | inconclusive: 1.46 µM [cytotoxic, full curve, poor fit]
33 | CCCc1cc(C(=O)N/N=C/c2ccc(C)o2)c2ccccc2n1 | – | inconclusive: 13 µM [cytotoxic, partial curve]
34 | CN1CCN(C(=O)Nc2cccc(-c3ccccc3)c2)CC1 | inactive: 2.87% | –
35 | Cc1cccc(NC(=O)C2C(c3ccccc3)C2(Cl)Cl)c1 (stereo unspecified) | inactive: -24.5% | –
36 | COc1ccc(C(=O)OCCCc2cc3ccccc3c(=O)o2)cc1 | – | inconclusive: 23.1 µM [cytotoxic, single point]
37 | Cc1cccc(C(=O)NCC(=O)N2CCN(c3ccc(Cl)cc3)CC2)c1 | – | inconclusive: 14.6 µM [cytotoxic, partial curve, poor fit]
38 | CCS(=O)(=O)Nc1ccc(C2=NN(C(=S)Nc3ccccc3)C(c3ccco3)C2)cc1 (stereo unspecified) | inactive: 0% | –
39 | COc1ccc(CNC(=O)CN2C(=O)c3cccnc3Oc3ccc(C)cc32)cc1 | inactive: 1.59% | –
40 | COC(=O)COc1cccc(NC(=O)C(c2ccccc2)c2ccccc2)c1 | inactive: 2.02% | –
41 | COc1ccc(S(=O)(=O)NC2CC3CCC2C3)cc1 (stereo unspecified) | – | inconclusive: 0.461 µM [cytotoxic, full curve, poor fit]
42 | CCC(C)NC(=O)c1ccc2nc(-c3cccs3)c(-c3cccs3)nc2c1 (stereo unspecified) | – | active: 10.3 µM
43 | O=S(=O)(NCc1cn2ccsc2n1)c1ccc(Oc2ccccc2)cc1 | – | inconclusive: 29.1 µM [cytotoxic, single point]
44 | COc1cc(NC(=O)c2ccc([N+](=O)[O-])o2)ccc1NC(=O)c1cccs1 | – | inconclusive: 23.1 µM [cytotoxic, single point]
45 | Cc1cc(C)cc(NC2=CC(=O)CC(c3ccco3)C2)c1 (stereo unspecified) | inactive: -14.7% | –
46 | CN(C)S(=O)(=O)c1cccc(-n2sc3ccccc3c2=O)c1 | inactive: 0% | –
47 | CC(C)COc1ccc(C(=O)CCN2CCCCC2)cc1 | – | active: 14.6 µM
48 | CCSc1ncc(Cl)c(C(=O)Nc2ccc(S(=O)(=O)N(C)c3ccccc3)cc2)n1 | inactive: -25.7% | –

Row | SMILES | activity change, negative = cytotoxic | Potency
49 | Cc1ccc(NC(=O)c2ccc(Cl)nc2)cc1S(=O)(=O)N1CCOCC1 | – | inconclusive: 29.1 µM [cytotoxic, single point]
50 | COc1cc(CCC(=O)NCc2ccc(F)cc2)cc(OC)c1OC | – | inconclusive: 29.1 µM [cytotoxic, single point]
51 | COc1cccc(CNc2cccc(C(F)(F)F)c2)c1O | – | active: 20.6 µM
52 | Nc1c(C(=O)NCCN2CCOCC2)c2nc3ccccc3nc2n1-c1cccc(F)c1 | – | inconclusive: 25.9 µM [cytotoxic, single point]
53 | CCOc1ccc2c(C)cc(=O)oc2c1OCC | inconclusive: 5.12% | –
54 | CCCNc1ccc(C(=O)OCC)cc1[N+](=O)[O-] | – | active: 16.4 µM
55 | CCOc1cc(N2CCOCC2)c(OCC)cc1NC(=O)Cn1cnc2c(=O)n(C)c(=O)n(C)c21 | – | inconclusive: 23.1 µM [rising, single point]
56 | CCOC(=O)c1cc2c(nc1N)CCCC2 | inactive: 8.8% | –
57 | Cc1cc2nnc(SCC(=O)NC3CCCCC3)n2c(N)n1 | – | inconclusive: 0.411 µM [rising, full curve, poor fit]
58 | O=C(O)CCN1c2cccc3cccc(c23)S1(=O)=O | – | inconclusive: 29.1 µM [rising, single point]
59 | CNC(=S)N1N=C(c2ccc(C)cc2)CC1c1cc(OC)ccc1OC (stereo unspecified) | – | active: 11.6 µM
60 | Cc1nc(CNS(=O)(=O)c2cccs2)cs1 | – | inconclusive: 0.411 µM [rising, full curve]
61 | CN(CCc1ccccc1)C(=O)c1ccc(NC(=O)Cc2ccc(NC(=O)C3CCCN(C(=O)C4CCCC4)C3)cc2)cc1 (stereo unspecified) | – | inconclusive: 18.4 µM [cytotoxic, single point]
62 | O=C(Cc1n[nH]c(=O)c2ccccc12)OCC(=O)c1ccc2c(c1)OCCO2 | – | active: 1.46 µM
63 | Cc1cc(/C=C/c2c(C)cnc3ccccc23)ccc1N(C)C | – | inconclusive: 2.31 µM [cytotoxic, partial curve, poor fit]
64 | O=C(Nc1ccc(Cl)c(S(=O)(=O)N2CCOCC2)c1)c1ccncc1 | inactive: 0.152% | –
65 | CCCC(=O)N1CCN(c2ccc(NC(=O)c3ccco3)cc2)CC1 | inactive: 11.6% | –
66 | Cc1ccc(OC(F)F)c(NC(=O)Nc2ccc3c(c2)OCO3)c1 | inconclusive: 35.5% | –
67 | Cc1ccc(NC(=O)CSc2nnc(COc3ccccc3F)n2N)cc1S(=O)(=O)N1CCOCC1 | – | inconclusive: 14.6 µM [cytotoxic, single point]
68 | CCC(CC)c1nn2c(=O)cc(COc3ccc(NC(=O)c4ccccc4Cl)cc3)nc2s1 | inactive: 13.2% | –
69 | COc1cc(/C=C(/C#N)c2nc3ccccc3[nH]2)ccc1OC(=O)c1ccco1 | – | inconclusive: 29.1 µM [cytotoxic, single point]
70 | COc1cccc2[nH]c3ccccc3c(=O)c12 | inactive: 1.97% | –
71 | C/C(=N\N1CCN(c2ccccc2)CC1)c1ccncc1 | – | inconclusive: 2.59 µM [rising, full curve]

By substructure: the entries above containing fluorine
Row | SMILES | activity change, negative = cytotoxic | Potency
1 | O=C(NCc1ccco1)C(c1ccncc1)N(C(=O)Cn1nnc2ccccc21)c1ccccc1F (stereo unspecified) | inactive: 15.5% | –
5 | CCSC1=C(C#N)C(c2ccccc2Cl)C(C(=O)c2cccs2)C(O)(C(F)(F)F)N1 (stereo unspecified) | – | inconclusive: 25.9 µM [cytotoxic, partial curve]
8 | COc1ccc(C(CCNC(C)c2ccccc2)c2ccc(F)cc2)cc1 (stereo unspecified) | – | inconclusive: 29.1 µM [cytotoxic, single point]
13 | O=C(Cc1ccc(F)cc1)NCCS(=O)(=O)N1CCN(c2cccc(Cl)c2)CC1 | – | inconclusive: 29.1 µM [cytotoxic, single point]
14 | O=c1c2ccccc2c(-c2cccc(C(F)(F)F)c2)nn1-c1ccccc1 | – | inconclusive: 29.1 µM [cytotoxic, single point]
16 | CCOc1ccc(-c2nnc(SCc3nnc(-c4ccccc4)o3)n2-c2ccccc2F)cc1 | – | inconclusive: 16.4 µM [cytotoxic, single point]
24 | CCCC(=O)Nc1nc2ccc(NC(=O)c3ccccc3F)cc2s1 | – | active: 2.06 µM
50 | COc1cc(CCC(=O)NCc2ccc(F)cc2)cc(OC)c1OC | – | inconclusive: 29.1 µM [cytotoxic, single point]
51 | COc1cccc(CNc2cccc(C(F)(F)F)c2)c1O | – | active: 20.6 µM
52 | Nc1c(C(=O)NCCN2CCOCC2)c2nc3ccccc3nc2n1-c1cccc(F)c1 | – | inconclusive: 25.9 µM [cytotoxic, single point]
66 | Cc1ccc(OC(F)F)c(NC(=O)Nc2ccc3c(c2)OCO3)c1 | inconclusive: 35.5% | –
67 | Cc1ccc(NC(=O)CSc2nnc(COc3ccccc3F)n2N)cc1S(=O)(=O)N1CCOCC1 | – | inconclusive: 14.6 µM [cytotoxic, single point]
